The results in this text go back to paper PMC8344065.

The target in the test is T1, Receptor-interacting protein kinase 1 (RIPK1), mouse myocardium (mouse (endogenous in C57BL/6 myocardium)), Q60855.
T1 chain: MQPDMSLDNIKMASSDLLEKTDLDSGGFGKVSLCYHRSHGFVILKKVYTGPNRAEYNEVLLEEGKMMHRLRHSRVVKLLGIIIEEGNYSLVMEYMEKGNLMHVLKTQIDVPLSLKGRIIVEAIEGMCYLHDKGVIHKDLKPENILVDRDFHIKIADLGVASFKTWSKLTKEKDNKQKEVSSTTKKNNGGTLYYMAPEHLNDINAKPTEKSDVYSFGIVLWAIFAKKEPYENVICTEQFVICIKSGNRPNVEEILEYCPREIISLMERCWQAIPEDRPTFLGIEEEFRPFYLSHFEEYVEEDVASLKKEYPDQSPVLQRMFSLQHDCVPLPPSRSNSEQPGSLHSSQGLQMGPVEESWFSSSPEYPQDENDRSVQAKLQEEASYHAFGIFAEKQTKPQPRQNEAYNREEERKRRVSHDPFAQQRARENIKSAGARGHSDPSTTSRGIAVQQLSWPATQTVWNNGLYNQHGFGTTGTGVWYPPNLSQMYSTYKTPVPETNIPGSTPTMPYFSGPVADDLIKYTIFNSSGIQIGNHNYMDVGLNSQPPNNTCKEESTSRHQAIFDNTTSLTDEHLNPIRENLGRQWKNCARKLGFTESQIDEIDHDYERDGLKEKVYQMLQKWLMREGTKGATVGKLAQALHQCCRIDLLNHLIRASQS
Put plainly: co-IP; mouse myocardium lysate, normoxia and hypoxia; immunoprecipitated with anti-LC3 or anti-RIPK1 antibodies, immunoblotted with anti-LC3, anti-RIPK1 or anti-RIPK3. Particulars: remark: other sources report otherwise.

No constants are given. Whether binding was seen depends on the method and setting. Binding seen in cells or lysates may run through a third protein. Some binding calls cover weakened binding; strength is not graded here.

B1: Receptor-interacting protein kinase 3 (RIPK3), mouse myocardium, Q9QZL0 1-486 (protein)
chain: MSSVKLWPTGASAVPLVSREELKKLEFVGKGGFGVVFRAHHRTWNHDVAVKIVNSKKISWEVKAMVNLRNENVLLLLGVTEDLQWDFVSGQALVTRFMENGSLAGLLQPECPRPWPLLCRLLQEVVLGMCYLHSLNPPLLHRDLKPSNILLDPELHAKLADFGLSTFQGGSQSGSGSGSGSRDSGGTLAYLDPELLFDVNLKASKASDVYSFGILVWAVLAGREAELVDKTSLIRETVCDRQSRPPLTELPPGSPETPGLEKLKELMIHCWGSQSENRPSFQDCEPKTNEVYNLVKDKVDAAVSEVKHYLSQHRSSGRNLSAREPSQRGTEMDCPRETMVSKMLDRLHLEEPSGPVPGKCPERQAQDTSVGPATPARTSSDPVAGTPQIPHTLPFRGTTPGPVFTETPGPHPQRNQGDGRHGTPWYPWTPPNPMTGPPALVFNNCSEVQIGNYNSLVAPPRTTASSSAKYDQAQFGRGRGWQPFHK
On to B1, for which the binding result is “binds”.
